Literature values, collected in patent US11345956B2, “Methods and compositions related to prostate cancer therapeutics” (The Johns Hopkins University, priority 2014, dated 2022).
Some entries share one result that the patent states for a list of compounds. At least one structure is not confirmed: it was looked up by name or label, or the drawing left a doubt.

Tested on: metastatic CRPC
Details: literature; cited from earlier work

Compound: C[C@]12CC[C@H](O)CC1=CC[C@@H]1[C@@H]2CC[C@]2(C)C(c3cccnc3)=CC[C@@H]12 [abiraterone]
- patients showing no PSA responses (primary resistance): 20-40%

Compound: CNC(=O)c1ccc(N2C(=S)N(c3ccc(C#N)c(C(F)(F)F)c3)C(=O)C2(C)C)cc1F [enzalutamide]
- patients showing no PSA responses (primary resistance): 20-40%
